According to PubChem BioAssay AID2685 (National Center for Advancing Translational Sciences (NCATS), 2010):
About 2,100 (0.66%) of roughly 320,000 compounds were called active. The shares of active, inactive and inconclusive entries below differ from those in the screen. Calls follow the shape of the dose curve; as a rule, active = well fitted inhibition curve with a large enough effect in the signal ratio, with a control signal flat (not every such curve was filed as active); inconclusive = small, poorly fitted or top-dose-only effect, or effect the other way, or a change in a side signal; inactive = flat fitted curve, though single readings scatter; the % refers to the signal ratio. Where the call is inconclusive, the potency comes from a doubtful curve fit.

Assay: qHTS Assay for Lipid Storage Modulators in Drosophila S3 Cells
Settings: BODIPY lipid droplet fluorescence, 18-24 h, cells fed with added oleic acid; lipid storage change, negative = inhibition: at 46.1 µM (top of the series) unless noted
Outline: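 Drosophila S3 cells loaded with oleic acid (400 uM, as added) and compounds at several concentrations; lipid droplets imaged by 488-nm laser-scanning cytometry, 500–530 nm intensity and object ratio to cell channel. Percent activity normalized to 20 uM Triacsin C.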
% is scaled to controls: 0 for no effect and ±100 for the full control effect; potency is read from the fitted curve at half-maximal effect.

| Structure (SMILES) | lipid storage change, negative = inhibition | Potency |
| --- | --- | --- |
| Cc1ccccc1NC(=O)NCCCN1CCCC1 | inconclusive: 60.6% | – |
| O=S(=O)(c1cc(Cl)cc(Cl)c1O)N1CCC2(CC1)OCCO2 | inconclusive: -28.4% | – |
| O=C(Nc1cc(Cl)ccc1N1CCCC1)C1=NN(c2ccccc2)C(=O)CC1 | inconclusive: 63% | – |
| O=C(CN1CCOC1=O)N1CCCC(N2CCN(c3cccc(C(F)(F)F)c3)CC2)C1 (configuration not stated) | inactive | – |
| O=C(C1CCCO1)N1CCN(C(=S)Nc2ccc(F)c(Cl)c2)CC1 (configuration not stated) | inconclusive: -17.1% | – |
| O=C(Nc1cccc(OCC(=O)N2CCOCC2)c1)c1cccc([N+](=O)[O-])c1 | inconclusive: 9.4% | – |
| Cc1sc2ncnc(SCC(=O)N3CCCC(C(N)=O)C3)c2c1C (configuration not stated) | inconclusive | – |
| NC(=O)c1cc([N+](=O)[O-])c(Cl)cc1NCc1ccncc1 | inconclusive: 14.4% | – |
| C/C(=N\NC(=O)c1cc(-c2ccc(C)s2)nc2ccccc12)c1cccnc1 | inconclusive: -54% | – |
| COc1ccc(CCNC(=O)COC(=O)C23CC4CC(CC(C4)C2)C3)cc1 | – | inconclusive: 16.4 µM [falling, single point] |
| COc1ccc(S(=O)(=O)N2C(=O)/C(=C3\SC(N)=NC3=O)c3ccccc32)cc1 | inconclusive: -4.19% | – |
| O=C(COC(=O)c1ccc(-c2ccc([N+](=O)[O-])cc2)o1)NC(=O)NC12CC3CC(CC(C3)C1)C2 | inconclusive: 10.8% | – |
| Cc1ccc(C(=O)NNC(=O)C2CCN(S(=O)(=O)c3ccc(Cl)cc3)CC2)cc1 | – | inconclusive: 29.1 µM [falling, single point] |
| CCc1ccccc1NC(=S)N1CCCCCC1 | inconclusive: -2.36% | – |
| COc1ccc(S(=O)(=O)N2CCN(C)CC2)cc1NC(=O)c1ccccc1 | inconclusive: 5.51% | – |
| CCOc1ccc(N2CCCn3c2nc2c3c(=O)n(CCc3ccccc3)c(=O)n2C)cc1 | inconclusive: 37.3% | – |
| Clc1ccccc1CSc1nnc(-c2ccco2)c(-c2ccco2)n1 | inconclusive: -36.1% | – |
| COc1cccc(NC(=O)c2ccccc2Oc2ccccc2)c1 | inconclusive: 40.6% | – |
| Cc1cc(C)cc(NC(=O)c2sc3nc4n(c(=O)c3c2C)CCC4)c1 | – | active: 18.4 µM |
| COc1ccccc1CNC(=O)COC(=O)Cc1ccsc1 | inconclusive: 31.1% | – |
| CN(C)C(CNC(=O)c1ccc(OCc2cn3ccccc3n2)cc1)c1ccco1 (configuration not stated) | inconclusive: 30.6% | – |
| COC(=O)C1=C(CS(=O)(=O)c2ccccc2)NC(=O)NC1c1ccc(O)cc1 (configuration not stated) | inconclusive: -30.1% | – |
| O=[N+]([O-])c1cc2oc3c(c2c(C=NCc2ccncc2)c1O)CCCC3 | inconclusive: 0.973% | – |
| O=C(Nc1ccc(Br)cc1)C1CCCN1S(=O)(=O)c1cccs1 (configuration not stated) | – | inconclusive: 3.26 µM [falling, full curve, poor fit] |

14 structures out of the list, sorted by heavy-atom count, high to low.

| Structure (SMILES) | lipid storage change, negative = inhibition | Potency |
| --- | --- | --- |
| O=C(COC(=O)c1ccc(-c2ccc([N+](=O)[O-])cc2)o1)NC(=O)NC12CC3CC(CC(C3)C1)C2 | inconclusive: 10.8% | – |
| CCOc1ccc(N2CCCn3c2nc2c3c(=O)n(CCc3ccccc3)c(=O)n2C)cc1 | inconclusive: 37.3% | – |
| O=C(CN1CCOC1=O)N1CCCC(N2CCN(c3cccc(C(F)(F)F)c3)CC2)C1 (configuration not stated) | inactive | – |
| CN(C)C(CNC(=O)c1ccc(OCc2cn3ccccc3n2)cc1)c1ccco1 (configuration not stated) | inconclusive: 30.6% | – |
| Cc1ccc(C(=O)NNC(=O)C2CCN(S(=O)(=O)c3ccc(Cl)cc3)CC2)cc1 | – | inconclusive: 29.1 µM [falling, single point] |
| O=C(Nc1cc(Cl)ccc1N1CCCC1)C1=NN(c2ccccc2)C(=O)CC1 | inconclusive: 63% | – |
| COc1ccc(S(=O)(=O)N2CCN(C)CC2)cc1NC(=O)c1ccccc1 | inconclusive: 5.51% | – |
| O=[N+]([O-])c1cc2oc3c(c2c(C=NCc2ccncc2)c1O)CCCC3 | inconclusive: 0.973% | – |
| Clc1ccccc1CSc1nnc(-c2ccco2)c(-c2ccco2)n1 | inconclusive: -36.1% | – |
| COc1cccc(NC(=O)c2ccccc2Oc2ccccc2)c1 | inconclusive: 40.6% | – |
| O=C(Nc1ccc(Br)cc1)C1CCCN1S(=O)(=O)c1cccs1 (configuration not stated) | – | inconclusive: 3.26 µM [falling, full curve, poor fit] |
| O=S(=O)(c1cc(Cl)cc(Cl)c1O)N1CCC2(CC1)OCCO2 | inconclusive: -28.4% | – |
| NC(=O)c1cc([N+](=O)[O-])c(Cl)cc1NCc1ccncc1 | inconclusive: 14.4% | – |
| CCc1ccccc1NC(=S)N1CCCCCC1 | inconclusive: -2.36% | – |

Continued:

| Structure (SMILES) | lipid storage change, negative = inhibition | Potency |
| --- | --- | --- |
| Cc1[nH]c(=O)[nH]c(=O)c1CSc1nnc([C@H](CC(C)C)NC(=O)OC(C)(C)C)o1 | inconclusive: 27.1% | – |
| Cc1ccc(/C=N\Nc2cn[nH]c(=O)c2Cl)cc1 | – | inconclusive: 6.51 µM [activator, partial curve, poor fit] |
| Cc1ccccc1C(=O)Nc1ccccc1NC(=O)c1ccccc1Br | – | inconclusive: 25.9 µM [falling, single point] |
| C#CCSc1ncc(S(=O)(=O)c2ccccc2)c(=O)[nH]1 | – | inconclusive: 29.1 µM [cytotoxic, single point] |
| COc1ccccc1NS(=O)(=O)c1ccc(O)c(C(=O)OCC(=O)Nc2ccccc2F)c1 | inconclusive: 28.9% | – |
| O=c1c2ccccc2oc2nc(-c3ccco3)n(CCc3ccccc3)c(=O)c12 | inconclusive: 17.3% | – |
| Cc1cc([N+](=O)[O-])nn1CCCC(=O)Nc1cccc(Cl)c1Cl | inconclusive: -10.2% | – |
| CCOC(=O)Cn1nnnc1C(CC)N(Cc1cccs1)Cc1cc2cc(C)ccc2[nH]c1=O (configuration not stated) | inconclusive: 61.8% [activator] | – |
| COc1ccccc1-n1c(SCC(=O)Nc2ccc(NC(C)=O)cc2)nc2c([nH]c3ccccc32)c1=O | – | inconclusive: 1.3 µM [falling, full curve] |
| CN(C(=O)c1ccc(-c2nn(C)c(=O)c3ccccc23)cc1)C1CCCCC1 | inconclusive: -27% | – |
| C=C1CCN([C@@H](C)C(=O)OCc2cccc(C)c2)S(=O)(=O)c2ccccc21 | inconclusive: 6.34% | – |
| O=C(Nc1ccc(Br)c2ccccc12)c1ccc2ccccc2c1O | – | inconclusive: 29.1 µM [cytotoxic, single point] |
| CCn1ncc([N+](=O)[O-])c1C(=O)Nc1ccc(C)c(C)c1 | – | inconclusive: 29.1 µM [activator, single point] |
| CC(C(=O)N(C1CC1)C1(C(=O)Nc2ccccc2)CCCC1)N1C(=O)c2ccccc2C1=O (configuration not stated) | inconclusive: 13.2% | – |
| Cc1noc(C)c1CSc1ncnc2ccccc12 | inconclusive: -5.75% [at 9.22 µM] | – |
| CCOC(=O)c1c(C)oc2c1c(C=NCc1ccccn1)c(O)c1ccccc12 | inconclusive: -84.8% | – |
| COC(=O)c1cc(NS(=O)(=O)c2ccc(N3CCOCC3)c(N)c2)cc(C(=O)OC)c1 | inconclusive: 9.33% | – |
| Nc1cc(S(=O)(=O)Nc2ccccc2Cl)ccc1N1CCCC1 | inconclusive: 5.17% | – |
| C=CCNC(=S)NNC(=O)CSc1nc2ccccc2s1 | inconclusive: 17.3% | – |
| Cc1nc2ccccc2n1C1CC(=O)N(N(C)C)C1=O (configuration not stated) | – | inconclusive: 0.461 µM [falling, full curve, poor fit] |
| N#CCSc1nc2ccccc2c(=O)n1CCC(=O)NC1CCCCC1 | inconclusive: -29% | – |
| O=Cc1c(NCc2ccccc2Cl)c2ccccc2[nH]c1=O | – | inconclusive: 29.1 µM [falling, single point] |
| C=CCn1c(SCC(=O)Nc2cccnc2Cl)nnc1-c1ccccc1F | inconclusive: 17% | – |
| O=C(O)CCCCCNS(=O)(=O)c1cccc2c1C(=O)c1ccccc1C2=O | – | inconclusive: 13 µM [falling, partial curve, poor fit] |

| Structure (SMILES) | lipid storage change, negative = inhibition | Potency |
| --- | --- | --- |
| C=CCNC(=S)NNC(=O)c1cc(O)ccc1O | inconclusive: -32.6% [cytotoxic] | – |
| CCOc1ccc(N2CC(C(=O)NCc3ccccn3)CC2=O)cc1 (configuration not stated) | – | inconclusive: 29.1 µM [activator, single point] |
| CCOC(=O)C1=C(c2ccccc2)NC(=O)NC1c1ccc(OC)cc1 (configuration not stated) | inconclusive: 31.8% | – |
| O=C(CN(Cc1ccccc1Cl)C(=O)c1ccc(CN2CCOCC2)o1)NCC1CCCO1 (configuration not stated) | inconclusive: -12.5% | – |
| O=C(/C=C/c1ccc([N+](=O)[O-])cc1)c1ccco1 | inactive | – |
| Cc1ccc(C)c(N(CC(=O)N/N=C/c2ccc(-c3ccc([N+](=O)[O-])cc3)o2)S(=O)(=O)c2ccccc2)c1 | inconclusive: -21.9% | – |
| CCOc1ccc(NC(=O)CSc2nnc(-c3cc(C)[nH]n3)n2N)cc1 | – | inconclusive: 29.1 µM [activator, single point] |
| CCOC(=O)N1CCN(Cc2nc3cc(NC(=O)c4ccco4)ccc3n2CC)CC1 | inconclusive: 2.32% | – |
| COCCCN1C(=O)C(=O)/C(=C(/O)c2ccccc2)C1c1ccc2c(c1)OCO2 (configuration not stated) | inconclusive: 17.7% | – |
| Cc1nn(CC(=O)N2CC(=O)Nc3ccccc32)c(C)c1[N+](=O)[O-] | inconclusive: 15.6% | – |
| O=S(=O)(c1ccc2c(c1)OCCO2)N1CCc2ccccc21 | inconclusive: -5.8% | – |
| Cc1cc(C)n(C(=O)c2ccc(C)c(S(=O)(=O)N3CCOCC3)c2)n1 | – | inconclusive: 6.51 µM [activator, partial curve] |
| COc1ccc(Cc2nnc(NC(=O)c3ccccc3F)s2)cc1OC | – | inconclusive: 0.58 µM [activator, single point] |
| COc1cc(NC(=O)c2ccccc2-n2cnnn2)cc(OC)c1 | inconclusive | – |
| CCOC(=O)N1CC=C2C(C#N)=C(N)C(C#N)(C#N)[C@H](c3ccc(OCC)c(OCC)c3)[C@H]2C1 | – | inconclusive: 7.31 µM [activator, partial curve] |
| CCOC(=O)c1cc2c(=O)n3cccc(C)c3nc2n(CCCOC)c1=NC(=O)c1cccnc1 | inactive | – |
| O=C(Nc1ccccc1)c1cccnc1Nc1ccccc1 | – | inconclusive: 0.517 µM [activator, partial curve] |
| CC[C@H]1OC(=O)[C@H](C)[C@@H](O[C@H]2C[C@@](C)(OC)[C@@H](O)[C@H](C)O2)[C@H](C)[C@@H](O[C@@H]2O[C@H](C)C[C@H](N(C)C)[C@H]2O)[C@](C)(O)C[C@@H](C)C(=O)[C@H](C)[C@@H](O)[C@]1(C)O | inconclusive: 16.4% | – |
| CCn1cc([N+](=O)[O-])c(C(=O)N2CCOCC2)n1 | inactive | – |
| C/C(=N\NC(=O)c1cc(O)ccc1O)c1cccc(NC(=O)c2ccc(Cl)cc2)c1 | – | inconclusive: 3.26 µM [activator, full curve, poor fit] |
| O=C(NCc1ccc(F)cc1)N[C@@H](Cc1ccccc1)C(=O)O | – | inconclusive: 8.2 µM [falling, partial curve] |
| CCC1(c2ccccc2)NC(=O)N(CC(=O)NCc2ccc(F)cc2)C1=O (configuration not stated) | – | inconclusive: 13 µM [activator, partial curve] |
| CCCCn1c(N)c(N(CCOC)C(=O)COc2ccc(Cl)cc2)c(=O)[nH]c1=O | – | inconclusive: 0.0046 µM [falling, full curve, poor fit] |
| CCN(CC)c1ccc(/C=N/NC(=O)c2cccc(S(=O)(=O)Nc3ccccc3OC)c2)c(O)c1 | – | inconclusive: 6.51 µM [falling, full curve] |
